Measurements as given in the supplement of paper PMC12819154, “High-throughput peptide-centric local stability assay extends protein–ligand identification to membrane proteins, tissues and bacteria” (Nature Structural & Molecular Biology, 2025).
The other results are listed elsewhere or left out. Most entries show no effect beyond the scatter of the controls.

Amino acid sequences for entries named in this document (tags omitted). A change or cut given only in a name is not applied to a line headed by its entry.
UniProt Q96G25: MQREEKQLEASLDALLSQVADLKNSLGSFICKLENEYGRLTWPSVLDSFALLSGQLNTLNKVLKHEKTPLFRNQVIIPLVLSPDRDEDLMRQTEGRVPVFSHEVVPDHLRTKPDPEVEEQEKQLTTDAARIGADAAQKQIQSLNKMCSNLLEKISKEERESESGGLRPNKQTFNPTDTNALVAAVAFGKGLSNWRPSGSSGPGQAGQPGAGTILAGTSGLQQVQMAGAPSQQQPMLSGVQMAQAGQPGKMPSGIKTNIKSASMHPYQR
UniProt Q96A72, whole entry: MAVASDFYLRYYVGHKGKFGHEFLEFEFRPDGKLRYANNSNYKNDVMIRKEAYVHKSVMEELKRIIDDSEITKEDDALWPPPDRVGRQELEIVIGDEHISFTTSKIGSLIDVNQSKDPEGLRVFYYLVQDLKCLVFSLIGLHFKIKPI
UniProt Q969S8: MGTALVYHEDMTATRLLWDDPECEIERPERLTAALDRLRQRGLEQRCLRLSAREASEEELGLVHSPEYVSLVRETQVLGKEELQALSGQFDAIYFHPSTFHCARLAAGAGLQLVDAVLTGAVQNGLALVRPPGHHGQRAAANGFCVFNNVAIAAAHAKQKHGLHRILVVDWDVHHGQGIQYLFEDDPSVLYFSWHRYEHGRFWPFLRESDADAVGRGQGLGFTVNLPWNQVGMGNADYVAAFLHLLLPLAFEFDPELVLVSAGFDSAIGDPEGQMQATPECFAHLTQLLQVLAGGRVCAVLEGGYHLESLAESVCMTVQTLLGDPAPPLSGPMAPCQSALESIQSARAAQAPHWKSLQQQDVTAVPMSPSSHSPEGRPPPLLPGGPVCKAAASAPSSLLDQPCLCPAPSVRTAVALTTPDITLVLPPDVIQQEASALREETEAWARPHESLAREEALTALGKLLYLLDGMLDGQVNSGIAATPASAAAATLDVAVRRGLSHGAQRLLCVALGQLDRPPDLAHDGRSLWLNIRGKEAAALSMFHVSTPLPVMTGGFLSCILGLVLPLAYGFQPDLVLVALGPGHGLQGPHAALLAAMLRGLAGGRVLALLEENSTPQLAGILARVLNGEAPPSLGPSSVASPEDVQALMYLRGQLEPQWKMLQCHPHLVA
UniProt Q96EY1: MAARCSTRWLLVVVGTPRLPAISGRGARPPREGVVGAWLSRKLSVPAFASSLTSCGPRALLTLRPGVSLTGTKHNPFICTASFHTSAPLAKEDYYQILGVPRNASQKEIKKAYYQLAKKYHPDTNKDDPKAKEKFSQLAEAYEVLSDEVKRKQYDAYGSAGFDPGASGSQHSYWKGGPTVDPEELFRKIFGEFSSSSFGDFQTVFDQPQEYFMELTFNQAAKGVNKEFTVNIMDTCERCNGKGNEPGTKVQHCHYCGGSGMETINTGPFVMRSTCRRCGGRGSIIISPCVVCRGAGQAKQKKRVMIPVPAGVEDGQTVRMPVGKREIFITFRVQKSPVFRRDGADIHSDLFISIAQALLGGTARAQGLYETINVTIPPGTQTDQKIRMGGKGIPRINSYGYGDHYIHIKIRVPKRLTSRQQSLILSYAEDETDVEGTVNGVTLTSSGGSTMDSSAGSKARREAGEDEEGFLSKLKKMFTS
UniProt Q96EZ8, whole entry: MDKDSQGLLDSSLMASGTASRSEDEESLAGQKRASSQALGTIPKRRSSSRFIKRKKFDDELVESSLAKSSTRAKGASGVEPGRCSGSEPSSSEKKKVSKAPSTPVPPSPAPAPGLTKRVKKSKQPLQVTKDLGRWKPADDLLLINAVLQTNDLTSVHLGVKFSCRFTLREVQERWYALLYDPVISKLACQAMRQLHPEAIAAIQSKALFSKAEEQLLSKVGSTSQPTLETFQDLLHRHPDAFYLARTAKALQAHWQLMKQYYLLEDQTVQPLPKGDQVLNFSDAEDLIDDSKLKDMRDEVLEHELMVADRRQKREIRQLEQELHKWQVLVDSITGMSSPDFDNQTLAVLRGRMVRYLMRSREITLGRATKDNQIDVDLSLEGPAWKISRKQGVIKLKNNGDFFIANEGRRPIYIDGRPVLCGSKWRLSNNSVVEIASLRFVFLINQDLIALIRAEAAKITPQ
UniProt Q96AZ6: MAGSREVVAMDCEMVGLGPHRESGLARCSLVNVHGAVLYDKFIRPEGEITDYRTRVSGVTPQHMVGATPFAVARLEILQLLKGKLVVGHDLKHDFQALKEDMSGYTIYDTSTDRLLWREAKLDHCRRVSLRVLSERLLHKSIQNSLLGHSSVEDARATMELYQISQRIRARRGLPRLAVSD
UniProt Q92995: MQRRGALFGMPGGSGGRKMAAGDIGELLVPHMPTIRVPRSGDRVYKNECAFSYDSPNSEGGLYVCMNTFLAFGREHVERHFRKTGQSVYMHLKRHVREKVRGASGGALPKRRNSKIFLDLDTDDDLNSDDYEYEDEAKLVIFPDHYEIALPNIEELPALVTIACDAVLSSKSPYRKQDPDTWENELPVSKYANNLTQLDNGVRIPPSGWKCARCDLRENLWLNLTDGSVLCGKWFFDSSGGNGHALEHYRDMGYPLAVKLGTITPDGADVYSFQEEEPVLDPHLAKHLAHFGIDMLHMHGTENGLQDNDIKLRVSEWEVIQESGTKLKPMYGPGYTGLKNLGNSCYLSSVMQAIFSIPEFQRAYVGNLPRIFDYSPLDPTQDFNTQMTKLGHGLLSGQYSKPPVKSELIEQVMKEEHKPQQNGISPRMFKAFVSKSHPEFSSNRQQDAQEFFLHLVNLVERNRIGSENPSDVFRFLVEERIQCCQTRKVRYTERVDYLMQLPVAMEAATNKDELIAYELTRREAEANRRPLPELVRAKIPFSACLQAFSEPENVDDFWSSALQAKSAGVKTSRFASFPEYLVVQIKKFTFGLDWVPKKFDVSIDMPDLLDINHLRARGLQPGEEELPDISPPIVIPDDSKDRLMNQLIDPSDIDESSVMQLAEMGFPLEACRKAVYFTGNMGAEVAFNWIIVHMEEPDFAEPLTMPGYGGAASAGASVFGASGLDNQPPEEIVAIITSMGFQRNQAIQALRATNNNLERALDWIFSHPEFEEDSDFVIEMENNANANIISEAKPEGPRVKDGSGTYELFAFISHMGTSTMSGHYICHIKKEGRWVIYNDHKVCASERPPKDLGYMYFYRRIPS
UniProt Q92997: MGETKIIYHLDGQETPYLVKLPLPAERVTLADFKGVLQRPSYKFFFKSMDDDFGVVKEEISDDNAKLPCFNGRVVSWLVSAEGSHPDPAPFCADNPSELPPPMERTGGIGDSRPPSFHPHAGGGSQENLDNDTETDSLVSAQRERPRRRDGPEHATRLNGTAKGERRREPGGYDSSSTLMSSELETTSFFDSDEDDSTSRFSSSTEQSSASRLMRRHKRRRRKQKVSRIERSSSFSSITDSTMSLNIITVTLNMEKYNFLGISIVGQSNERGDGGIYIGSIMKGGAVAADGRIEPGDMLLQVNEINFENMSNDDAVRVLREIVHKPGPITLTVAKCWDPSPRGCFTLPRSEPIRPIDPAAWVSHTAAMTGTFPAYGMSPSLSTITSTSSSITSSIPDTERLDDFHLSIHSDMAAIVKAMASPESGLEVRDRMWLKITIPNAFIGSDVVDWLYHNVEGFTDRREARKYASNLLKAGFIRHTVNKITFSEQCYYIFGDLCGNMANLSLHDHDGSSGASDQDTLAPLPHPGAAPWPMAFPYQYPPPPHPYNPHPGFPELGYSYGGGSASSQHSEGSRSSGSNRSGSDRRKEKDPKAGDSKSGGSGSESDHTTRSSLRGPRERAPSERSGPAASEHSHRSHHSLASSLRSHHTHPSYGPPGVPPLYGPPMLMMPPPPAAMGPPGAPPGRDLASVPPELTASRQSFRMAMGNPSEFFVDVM
UniProt Q96EP1: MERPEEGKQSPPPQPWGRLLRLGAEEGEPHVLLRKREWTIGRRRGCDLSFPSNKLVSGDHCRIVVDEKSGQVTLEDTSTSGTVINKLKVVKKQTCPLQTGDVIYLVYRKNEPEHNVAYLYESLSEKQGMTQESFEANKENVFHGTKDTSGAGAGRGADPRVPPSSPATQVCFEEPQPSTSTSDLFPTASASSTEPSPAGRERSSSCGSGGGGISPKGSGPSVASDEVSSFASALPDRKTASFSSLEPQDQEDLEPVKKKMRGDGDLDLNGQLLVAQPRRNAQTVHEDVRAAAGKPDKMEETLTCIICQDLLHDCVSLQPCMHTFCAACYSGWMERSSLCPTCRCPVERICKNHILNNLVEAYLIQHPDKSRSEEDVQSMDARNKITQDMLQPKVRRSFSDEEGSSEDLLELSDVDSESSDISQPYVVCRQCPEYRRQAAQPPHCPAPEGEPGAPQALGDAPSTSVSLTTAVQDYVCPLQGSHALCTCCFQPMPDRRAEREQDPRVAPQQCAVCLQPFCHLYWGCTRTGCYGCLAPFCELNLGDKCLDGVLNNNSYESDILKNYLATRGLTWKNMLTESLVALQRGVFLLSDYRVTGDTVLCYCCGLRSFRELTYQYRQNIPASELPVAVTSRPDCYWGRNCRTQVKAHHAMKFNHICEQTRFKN
UniProt Q92979: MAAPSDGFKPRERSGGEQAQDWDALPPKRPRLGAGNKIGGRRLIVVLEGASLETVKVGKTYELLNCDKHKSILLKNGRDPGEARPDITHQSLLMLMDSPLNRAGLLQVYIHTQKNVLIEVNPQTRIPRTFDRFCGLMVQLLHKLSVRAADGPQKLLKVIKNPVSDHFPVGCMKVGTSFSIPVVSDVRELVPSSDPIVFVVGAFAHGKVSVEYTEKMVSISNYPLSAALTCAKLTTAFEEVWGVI
UniProt Q96EN9: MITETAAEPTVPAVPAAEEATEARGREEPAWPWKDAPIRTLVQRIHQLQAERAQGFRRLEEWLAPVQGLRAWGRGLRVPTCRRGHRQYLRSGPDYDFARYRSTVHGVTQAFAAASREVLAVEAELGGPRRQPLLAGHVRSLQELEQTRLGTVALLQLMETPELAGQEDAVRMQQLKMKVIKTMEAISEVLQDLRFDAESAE
UniProt Q96GJ1: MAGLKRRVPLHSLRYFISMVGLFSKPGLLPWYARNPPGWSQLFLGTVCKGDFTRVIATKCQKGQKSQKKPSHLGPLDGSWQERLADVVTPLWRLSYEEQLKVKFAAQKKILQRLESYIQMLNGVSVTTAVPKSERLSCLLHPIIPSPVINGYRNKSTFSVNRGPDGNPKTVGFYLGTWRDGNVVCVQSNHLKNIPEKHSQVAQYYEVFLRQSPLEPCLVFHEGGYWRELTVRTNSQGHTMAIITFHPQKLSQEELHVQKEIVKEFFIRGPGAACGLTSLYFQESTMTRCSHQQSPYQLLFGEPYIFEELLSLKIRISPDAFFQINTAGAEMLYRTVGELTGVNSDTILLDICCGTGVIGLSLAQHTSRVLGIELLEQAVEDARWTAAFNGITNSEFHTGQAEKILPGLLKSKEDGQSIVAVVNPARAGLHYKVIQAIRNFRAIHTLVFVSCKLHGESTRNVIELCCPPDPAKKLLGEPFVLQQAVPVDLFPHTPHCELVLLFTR
UniProt Q969Z0: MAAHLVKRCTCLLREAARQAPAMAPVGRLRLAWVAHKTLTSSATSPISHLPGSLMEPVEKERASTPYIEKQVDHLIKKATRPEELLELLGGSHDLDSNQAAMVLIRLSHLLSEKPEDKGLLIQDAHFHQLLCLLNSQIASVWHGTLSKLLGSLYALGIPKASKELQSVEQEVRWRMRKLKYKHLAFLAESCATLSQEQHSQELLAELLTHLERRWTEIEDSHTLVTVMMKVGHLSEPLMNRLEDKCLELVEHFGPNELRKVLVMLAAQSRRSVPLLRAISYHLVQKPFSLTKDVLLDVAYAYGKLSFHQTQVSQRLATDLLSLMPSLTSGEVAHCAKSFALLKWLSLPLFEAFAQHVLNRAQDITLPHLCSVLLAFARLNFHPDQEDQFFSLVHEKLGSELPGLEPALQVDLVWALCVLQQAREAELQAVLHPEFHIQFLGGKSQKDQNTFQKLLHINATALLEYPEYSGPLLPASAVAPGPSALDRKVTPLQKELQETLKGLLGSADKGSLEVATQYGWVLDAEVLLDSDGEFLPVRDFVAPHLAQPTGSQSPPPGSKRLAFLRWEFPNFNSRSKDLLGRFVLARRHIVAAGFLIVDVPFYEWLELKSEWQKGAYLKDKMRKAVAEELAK
UniProt Q96C36: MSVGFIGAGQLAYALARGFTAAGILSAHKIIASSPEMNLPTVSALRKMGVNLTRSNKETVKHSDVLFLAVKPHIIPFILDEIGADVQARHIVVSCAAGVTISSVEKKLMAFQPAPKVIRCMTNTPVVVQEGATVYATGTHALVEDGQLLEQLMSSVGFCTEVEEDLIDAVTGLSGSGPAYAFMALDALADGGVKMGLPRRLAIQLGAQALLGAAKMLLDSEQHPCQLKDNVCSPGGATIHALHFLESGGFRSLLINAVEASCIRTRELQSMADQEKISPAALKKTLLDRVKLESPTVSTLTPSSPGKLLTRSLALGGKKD
UniProt Q96FH0: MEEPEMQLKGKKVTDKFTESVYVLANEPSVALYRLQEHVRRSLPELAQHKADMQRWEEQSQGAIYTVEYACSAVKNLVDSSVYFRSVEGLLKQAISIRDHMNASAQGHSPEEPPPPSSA

Compound: CN[C@@H]1C[C@H]2O[C@@](C)([C@@H]1OC)n1c3ccccc3c3c4c(c5c6ccccc6n2c5c31)C(=O)NC4 [staurosporine]
Assay: log2 fold change of tryptic peptide abundance, ligand vs vehicle (limited proteolysis) (log2 ratio); higher = more trypsin-susceptible (destabilized)
Settings: ligand concentration: 20 uM; sample: K562 cleared lysate; digestion: 4 min, 22 C (HT-PELSA RT4min, Orbitrap Astral)

| Target | log2 fold change |
| --- | --- |
| MED8 (peptide sequence: QTEGRVPVFSHEVVPDHLR, peptide start residue: 92) (UniProt Q96G25) | -0.626 |
| MAGOHB (peptide sequence: CLVFSLIGLHFK, peptide start residue: 133) (UniProt Q96A72) | 0.358 |
| L3MBTL2 (peptide sequence: GMKVEVLNSDAVLPSR, peptide start residue: 213) (UniProt Q969R5) | -0.568 |
| HDAC10 (peptide sequence: MLQCHPHLVA, peptide start residue: 660) (UniProt Q969S8) | 0.471 |
| NEIL2 (peptide sequence: FQGRPQHTQVYQK, peptide start residue: 276) (UniProt Q969S2) | 0.41 |
| GCC1 (peptide sequence: MEASYLADK, peptide start residue: 182) (UniProt Q96CN9) | -0.358 |
| UniProt Q96DE5 (peptide sequence: KALFTYPK, peptide start residue: 33) | -0.0661 |
| MRPL53 (peptide sequence: VQFCPFEK, peptide start residue: 18) (UniProt Q96EL3) | 0.18 |
| ZNF622 (peptide sequence: NVVAVGTGGR, peptide start residue: 157) (UniProt Q969S3) | -0.0896 |
| TUBGCP3 (peptide sequence: YLLLGQGDFIR, peptide start residue: 565) (UniProt Q96CW5) | 0.943 |
| R3HDM4 (peptide sequence: RREDPAYTPR, peptide start residue: 157) (UniProt Q96D70) | 0.588 |
| UniProt Q96BN8 (peptide sequence: ELLIHER, peptide start residue: 67) | -0.213 |
| PBXIP1 (peptide sequence: MDPESER, peptide start residue: 30) (UniProt Q96AQ6) | 0.17 |
| DNAJA3 (peptide sequence: GGPTVDPEELFR, peptide start residue: 176) (UniProt Q96EY1) | -0.21 |
| MCRS1 (peptide sequence: DEVLEHELMVADRR, peptide start residue: 298) (UniProt Q96EZ8) | 0.326 |
| ISG20 (peptide sequence: FIRPEGEITDYR, peptide start residue: 42) (UniProt Q96AZ6) | -0.342 |
| USP13 (peptide sequence: FTFGLDWVPK, peptide start residue: 576) (UniProt Q92995) | 0.111 |
| SMARCC1 (peptide sequence: KVEHEISEGNVATAAAAALASAATKAK, peptide start residue: 856) (UniProt Q92922) | -0.477 |
| HSPBAP1 (peptide sequence: INVVNPDLK, peptide start residue: 220) (UniProt Q96EW2) | 0.187 |
| DVL3 (peptide sequence: AMASPESGLEVR, peptide start residue: 418) (UniProt Q92997) | -0.265 |
| CHFR (peptide sequence: LVSGDHCR, peptide start residue: 55) (UniProt Q96EP1) | 0.201 |
| EMG1 (peptide sequence: AAPSDGFKPR, peptide start residue: 2) (UniProt Q92979) | 0.0675 |
| MSI2 (peptide sequence: SRGFGFVTFADPASVDK, peptide start residue: 61) (UniProt Q96DH6) | -0.649 |
| REX1BD (peptide sequence: IHQLQAER, peptide start residue: 45) (UniProt Q96EN9) | -0.552 |
| TRMT2B (peptide sequence: LADVVTPLWR, peptide start residue: 84) (UniProt Q96GJ1) | -0.215 |
| TBRG4 (peptide sequence: VGHLSEPLMNRLEDK, peptide start residue: 231) (UniProt Q969Z0) | 0.233 |
| PYCR2 (peptide sequence: HIVVSCAAGVTISSVEK, peptide start residue: 90) (UniProt Q96C36) | -0.516 |
| BORCS8 (peptide sequence: MEEPEMQLK, peptide start residue: 1) (UniProt Q96FH0) | 0.154 |

Exported comma-delimited: entries from further up
Target,log2 fold change
"GCC1 (peptide sequence: MEASYLADK, peptide start residue: 182) (UniProt Q96CN9)",-0.358
"MRPL53 (peptide sequence: VQFCPFEK, peptide start residue: 18) (UniProt Q96EL3)",0.18
"ZNF622 (peptide sequence: NVVAVGTGGR, peptide start residue: 157) (UniProt Q969S3)",-0.0896
"UniProt Q96BN8 (peptide sequence: ELLIHER, peptide start residue: 67)",-0.213
"ISG20 (peptide sequence: FIRPEGEITDYR, peptide start residue: 42) (UniProt Q96AZ6)",-0.342
"EMG1 (peptide sequence: AAPSDGFKPR, peptide start residue: 2) (UniProt Q92979)",0.0675
"MSI2 (peptide sequence: SRGFGFVTFADPASVDK, peptide start residue: 61) (UniProt Q96DH6)",-0.649
"PYCR2 (peptide sequence: HIVVSCAAGVTISSVEK, peptide start residue: 90) (UniProt Q96C36)",-0.516
